Results are given in words; binding and its absence hold for the method and conditions named. Binding seen in cells or lysates may run through a third protein. Some results given as binding are weak or reduced against the parent protein; the word gives no strength.

Amino acid sequences for entries named in this document (tags omitted).
UniProt Q91YD9: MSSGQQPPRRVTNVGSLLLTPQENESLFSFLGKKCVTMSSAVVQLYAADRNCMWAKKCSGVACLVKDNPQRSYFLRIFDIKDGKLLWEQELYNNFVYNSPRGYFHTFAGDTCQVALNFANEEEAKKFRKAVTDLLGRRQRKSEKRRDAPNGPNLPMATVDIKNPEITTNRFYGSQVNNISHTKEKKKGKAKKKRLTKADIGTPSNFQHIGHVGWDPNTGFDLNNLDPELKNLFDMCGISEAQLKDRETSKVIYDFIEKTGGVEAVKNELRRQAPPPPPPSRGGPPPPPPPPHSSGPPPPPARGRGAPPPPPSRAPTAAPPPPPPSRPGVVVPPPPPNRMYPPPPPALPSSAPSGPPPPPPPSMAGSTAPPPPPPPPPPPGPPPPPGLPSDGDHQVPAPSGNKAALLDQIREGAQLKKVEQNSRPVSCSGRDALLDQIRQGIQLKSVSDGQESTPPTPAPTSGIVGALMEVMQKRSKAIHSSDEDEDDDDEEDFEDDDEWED

The assay concerns the target T1, Dynamin 2 (mouse (endogenous in primary myotubes)) (UniProt P39054).
T1 sequence: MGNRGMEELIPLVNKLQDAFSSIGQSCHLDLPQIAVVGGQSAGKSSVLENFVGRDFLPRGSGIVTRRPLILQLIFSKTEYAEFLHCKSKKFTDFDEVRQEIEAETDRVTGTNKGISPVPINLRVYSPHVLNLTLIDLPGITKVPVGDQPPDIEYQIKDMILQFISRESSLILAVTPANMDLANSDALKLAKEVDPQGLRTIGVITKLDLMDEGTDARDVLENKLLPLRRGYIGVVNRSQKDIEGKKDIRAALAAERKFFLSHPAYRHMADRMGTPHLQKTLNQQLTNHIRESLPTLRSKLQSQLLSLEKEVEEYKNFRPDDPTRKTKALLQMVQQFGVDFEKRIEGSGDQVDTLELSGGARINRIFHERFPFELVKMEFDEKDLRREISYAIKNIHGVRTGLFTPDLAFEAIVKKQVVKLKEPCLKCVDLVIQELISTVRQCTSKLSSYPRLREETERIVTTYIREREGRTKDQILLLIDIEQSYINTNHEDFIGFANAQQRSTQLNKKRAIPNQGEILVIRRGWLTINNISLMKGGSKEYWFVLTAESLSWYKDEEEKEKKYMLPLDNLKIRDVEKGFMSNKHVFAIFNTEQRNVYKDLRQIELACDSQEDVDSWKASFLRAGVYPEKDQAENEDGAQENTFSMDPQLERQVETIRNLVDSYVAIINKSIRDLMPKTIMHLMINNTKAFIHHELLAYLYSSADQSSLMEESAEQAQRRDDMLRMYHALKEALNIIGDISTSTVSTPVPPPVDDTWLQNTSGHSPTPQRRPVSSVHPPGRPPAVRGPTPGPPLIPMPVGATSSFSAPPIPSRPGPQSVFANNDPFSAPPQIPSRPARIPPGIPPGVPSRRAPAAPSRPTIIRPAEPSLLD
Description: co-IP.

Turning to “Neuronal Wiskott-Aldrich Syndrome protein (from UniProt Q91YD9 1-501)”, the binding result was “binds”.

For the origin of these results see publication doi:10.1101/321885.
